Reference: patent US6730828B1, “Isolated nucleic acids encoding a wheat glutathione transferase, plants transformed therewith and methods of use thereof” (Aventis Agriculture Limited, priority 1997, dated 2004)
No constants are given. Whether binding was seen depends on the method and setting. Some results given as binding are weak or reduced against the parent protein; the word gives no strength. Tags and fused reporters may be left off the sequences shown.

How the values were obtained:
[1] = target: T1, TaGST2 subunit (26 kDa, safener-inducible) (wheat (Triticum aestivum L.)); assay: subunit composition of purified isoenzymes (anion exchange, reversed-phase HPLC, SDS-PAGE)
T1 sequence: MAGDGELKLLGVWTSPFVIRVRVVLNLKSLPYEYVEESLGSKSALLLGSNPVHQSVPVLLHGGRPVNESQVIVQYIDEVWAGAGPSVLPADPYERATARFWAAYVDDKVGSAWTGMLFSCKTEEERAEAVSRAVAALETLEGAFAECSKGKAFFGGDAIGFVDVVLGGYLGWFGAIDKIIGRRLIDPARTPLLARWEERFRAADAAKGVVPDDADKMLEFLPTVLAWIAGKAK

[2] = target: T2, TaGST3 subunit (26 kDa, safener-inducible) (wheat (Triticum aestivum L.)); assay: as above
T2 sequence: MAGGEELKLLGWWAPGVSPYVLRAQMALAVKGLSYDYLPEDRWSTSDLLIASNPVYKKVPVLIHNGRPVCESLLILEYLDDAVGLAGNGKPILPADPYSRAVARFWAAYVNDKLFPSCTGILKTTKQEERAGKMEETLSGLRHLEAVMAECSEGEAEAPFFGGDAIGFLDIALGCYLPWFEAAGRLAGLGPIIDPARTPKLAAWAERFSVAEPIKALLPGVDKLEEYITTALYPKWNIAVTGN

binding [1]: binds
binding [2]: binds
B1: Triticum aestivum GST 1 subunit (25 kDa) (enzyme)
chain: MAGEKGLVLLDFWVSPFGQRVRIALAEKGLPYEYAEEDLMAGKSDRLLRANPVHKKIPVLLHDGRAVNESLIILQYLEEAFPDAPALLPSDPYARAQARFWADYVDKKVYDCGSRLWKLKGEPQAQARAEMLDILKTLDGALGDKPFFGGDKFGFVDAAFAPFTAWFHSYERYGEFSLPEVAPKIAAWAKRCGERESVAKSLYSPDKVYDFIGLLKKKYGIE
notes: Native subunit in wheat shoot extracts; also called TaGST1
